Residue numbers refer to the chain shown, from its start. Names and notes keep the numbering of the source. No constants are given. Whether binding was seen depends on the method and setting. Binding seen in cells or lysates may run through a third protein. Some binding calls cover weakened binding; strength is not graded here. Tags and fused reporters may be left off the sequences shown. Values belong to the binder of their own block, whether it stands above or below them.
Biological target: T1, Hog1-HIS (S. cerevisiae) (UniProt P32485)
T1 sequence: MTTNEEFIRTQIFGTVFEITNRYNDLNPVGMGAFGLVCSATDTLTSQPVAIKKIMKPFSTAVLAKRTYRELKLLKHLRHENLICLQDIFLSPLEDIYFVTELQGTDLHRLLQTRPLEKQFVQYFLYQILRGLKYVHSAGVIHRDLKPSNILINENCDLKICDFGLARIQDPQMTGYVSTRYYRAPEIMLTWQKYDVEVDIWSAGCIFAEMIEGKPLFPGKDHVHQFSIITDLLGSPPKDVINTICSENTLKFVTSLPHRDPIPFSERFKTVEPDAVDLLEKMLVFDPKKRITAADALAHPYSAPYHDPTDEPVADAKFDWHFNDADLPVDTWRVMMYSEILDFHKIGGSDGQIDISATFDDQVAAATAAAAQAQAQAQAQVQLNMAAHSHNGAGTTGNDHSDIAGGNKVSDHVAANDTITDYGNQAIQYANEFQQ
Assay: pull-down; Hog1-HIS held on His-tag resin in columns, incubated 2 h at 4 °C with 5 mg total protein of NaCl-stressed yeast extracts (hog1 deletion background) diluted in kinase buffer (50 mM TrisHCl pH 7.5, 10 mM MgCl2, 50 µM ATP); washed with sonication buffer with 100 mM and 200 mM NaCl; Pbs2 detected by Western blot with anti-Pbs2; only the target purified

- binding: binds
B1: Pbs2^S248E (enzyme, UniProt P08018 1-668)
chain: MEDKFANLSLHEKTGKSSIQLNEQTGSDNGSAVKRTSSTSSHYNNINADLHARVKAFQEQRALKRSASVGSNQSEQDKGSSQSPKHIQQIVNKPLPPLPVAGSSKVSQRMSSQVVQASSKSTLKNVLDNQETQNITDVNINIDTTKITATTIGVNTGLPATDITPSVSNTASATHKAQLLNPNRRAPRRPLSTQHPTRPNVAPHKAPAIINTPKQSLSARRGLKLPPGGMSLKMPTKTAQQPQQFAPEPSNKKHIETLSNSKVVEGKRSNPGSLINGVQSTSTSSSTEGPHDTVGTTPRTGNSNNSSNSGSSGGGGLFANFSKYVDIKSGSLNFAGKLSLSSKGIDFSNGSSSRITLDELEFLDELGHGNYGNVSKVLHKPTNVIMATKEVRLELDEAKFRQILMELEVLHKCNSPYIVDFYGAFFIEGAVYMCMEYMDGGSLDKIYDESSEIGGIDEPQLAFIANAVIHGLKELKEQHNIIHRDVKPTNILCSANQGTVKLCDFGVSGNLVASLAKTNIGCQSYMAPERIKSLNPDRATYTVQSDIWSLGLSILEMALGRYPYPPETYDNIFSQLSAIVDGPPPRLPSDKFSSDAQDFVSLCLQKIPERRPTYAALTEHPWLVKYRNQDVHMSEYITERLERRNKILRERGENGLSKNVPALHMGGL

- binding: binds
B2: Pbs2 (WT) (enzyme, UniProt P08018 1-668)
chain: B1 chain with E248S
